{
  "source": "patent US20070212408A1",
  "about": "“Stable Pharmaceutical Composition Containing Benzimidazole Derivatives and Method of Manufacturing the Same” (priority 2004, published 2007)",
  "test": "Storage stability test of inclusion complexes containing omeprazole (Test Example 2), HPLC content",
  "assay_type": "physicochemical",
  "details": "60° C., 75% RH, relative to initial content",
  "note": "For at least one compound, name, drawing or mass did not settle the structure.",
  "data": [
    {"smiles": "COc1ccc2[nH]c([S+]([O-])Cc3ncc(C)c(OC)c3C)nc2c1", "note": "(centres unmarked) [omeprazole]", "values": [
      {"measurement": "Content after 1 wk (%)", "setting": "1 wk", "value": 75.1, "unit": "%"},
      {"measurement": "Content after 2 wk (%)", "setting": "2 wk", "value": 0, "unit": "%"}
    ]}
  ]
}
